Reference: the supplement of paper PMC11006884
This is a selection; strong and weak results do not stand in their true shares. The data scatter; read single values as rough.

The chains behind the UniProt entries cited, without tags or fusion partners. Where a name states a change or a piece, a line headed by the entry shows the natural chain unless it says otherwise.
UniProt P21333, whole entry, looked up: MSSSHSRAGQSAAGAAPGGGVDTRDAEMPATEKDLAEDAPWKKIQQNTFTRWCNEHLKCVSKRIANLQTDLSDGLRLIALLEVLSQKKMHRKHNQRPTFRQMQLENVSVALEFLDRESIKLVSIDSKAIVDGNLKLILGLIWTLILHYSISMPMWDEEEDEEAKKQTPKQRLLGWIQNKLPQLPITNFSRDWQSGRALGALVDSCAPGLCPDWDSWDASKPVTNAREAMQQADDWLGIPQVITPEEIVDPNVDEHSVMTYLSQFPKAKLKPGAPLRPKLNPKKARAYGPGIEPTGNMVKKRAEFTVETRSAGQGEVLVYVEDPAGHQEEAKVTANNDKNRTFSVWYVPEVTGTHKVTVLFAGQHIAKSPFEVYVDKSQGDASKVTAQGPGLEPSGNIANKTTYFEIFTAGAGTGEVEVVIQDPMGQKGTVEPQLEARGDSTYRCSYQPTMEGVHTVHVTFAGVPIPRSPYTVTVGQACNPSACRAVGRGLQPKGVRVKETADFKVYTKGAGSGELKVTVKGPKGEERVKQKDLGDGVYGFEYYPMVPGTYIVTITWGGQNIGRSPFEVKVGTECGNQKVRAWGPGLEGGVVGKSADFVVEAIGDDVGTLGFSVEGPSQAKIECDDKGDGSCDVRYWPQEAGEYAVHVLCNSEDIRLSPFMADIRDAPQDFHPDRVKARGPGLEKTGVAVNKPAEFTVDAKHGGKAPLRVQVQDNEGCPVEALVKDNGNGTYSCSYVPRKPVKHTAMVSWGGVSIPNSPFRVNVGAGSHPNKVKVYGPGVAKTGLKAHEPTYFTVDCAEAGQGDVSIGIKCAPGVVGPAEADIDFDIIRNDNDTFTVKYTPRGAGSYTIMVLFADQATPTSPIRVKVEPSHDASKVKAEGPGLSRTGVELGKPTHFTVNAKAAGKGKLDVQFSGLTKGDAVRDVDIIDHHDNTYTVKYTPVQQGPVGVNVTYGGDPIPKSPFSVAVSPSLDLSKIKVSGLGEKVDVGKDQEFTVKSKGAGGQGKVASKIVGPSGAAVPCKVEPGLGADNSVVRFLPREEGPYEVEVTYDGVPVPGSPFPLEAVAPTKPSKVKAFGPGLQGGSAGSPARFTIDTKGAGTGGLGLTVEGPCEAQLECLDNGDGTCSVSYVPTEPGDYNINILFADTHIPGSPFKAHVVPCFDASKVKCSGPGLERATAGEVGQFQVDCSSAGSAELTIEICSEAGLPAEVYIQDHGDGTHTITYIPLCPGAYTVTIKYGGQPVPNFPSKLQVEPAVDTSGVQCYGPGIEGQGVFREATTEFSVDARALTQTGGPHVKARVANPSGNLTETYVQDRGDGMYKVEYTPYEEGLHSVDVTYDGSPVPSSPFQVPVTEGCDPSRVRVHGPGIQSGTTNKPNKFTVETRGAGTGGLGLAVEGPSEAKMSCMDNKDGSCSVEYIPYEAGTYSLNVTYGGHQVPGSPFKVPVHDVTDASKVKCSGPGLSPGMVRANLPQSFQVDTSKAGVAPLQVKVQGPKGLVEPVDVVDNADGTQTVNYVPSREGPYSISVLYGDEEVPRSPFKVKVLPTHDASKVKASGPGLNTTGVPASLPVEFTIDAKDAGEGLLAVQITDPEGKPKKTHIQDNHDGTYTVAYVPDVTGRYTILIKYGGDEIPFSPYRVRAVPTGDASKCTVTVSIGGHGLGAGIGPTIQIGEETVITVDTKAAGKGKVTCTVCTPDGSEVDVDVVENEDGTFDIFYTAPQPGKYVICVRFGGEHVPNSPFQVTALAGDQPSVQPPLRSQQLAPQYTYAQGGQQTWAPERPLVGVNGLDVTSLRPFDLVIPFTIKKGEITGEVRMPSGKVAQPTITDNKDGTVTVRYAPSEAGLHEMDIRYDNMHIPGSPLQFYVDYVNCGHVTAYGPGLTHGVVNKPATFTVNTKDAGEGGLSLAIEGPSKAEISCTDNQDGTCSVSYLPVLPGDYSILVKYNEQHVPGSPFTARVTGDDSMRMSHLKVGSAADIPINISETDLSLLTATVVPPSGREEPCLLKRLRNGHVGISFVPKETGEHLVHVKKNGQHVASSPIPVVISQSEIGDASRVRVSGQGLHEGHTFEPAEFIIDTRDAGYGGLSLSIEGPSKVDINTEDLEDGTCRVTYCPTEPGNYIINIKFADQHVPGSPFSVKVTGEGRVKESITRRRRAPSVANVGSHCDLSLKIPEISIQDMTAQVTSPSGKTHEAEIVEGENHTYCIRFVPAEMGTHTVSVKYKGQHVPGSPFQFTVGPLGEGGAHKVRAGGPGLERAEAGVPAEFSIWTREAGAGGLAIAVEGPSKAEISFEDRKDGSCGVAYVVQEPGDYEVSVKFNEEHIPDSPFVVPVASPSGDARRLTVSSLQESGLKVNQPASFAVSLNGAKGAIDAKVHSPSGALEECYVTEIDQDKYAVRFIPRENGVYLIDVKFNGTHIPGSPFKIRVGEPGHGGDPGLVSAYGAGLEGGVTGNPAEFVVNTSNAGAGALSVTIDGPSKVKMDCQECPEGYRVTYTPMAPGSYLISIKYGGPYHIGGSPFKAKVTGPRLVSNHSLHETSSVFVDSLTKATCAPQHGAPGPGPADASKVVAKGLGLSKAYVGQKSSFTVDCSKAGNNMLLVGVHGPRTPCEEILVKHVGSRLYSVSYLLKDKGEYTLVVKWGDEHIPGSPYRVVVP
UniProt P29144: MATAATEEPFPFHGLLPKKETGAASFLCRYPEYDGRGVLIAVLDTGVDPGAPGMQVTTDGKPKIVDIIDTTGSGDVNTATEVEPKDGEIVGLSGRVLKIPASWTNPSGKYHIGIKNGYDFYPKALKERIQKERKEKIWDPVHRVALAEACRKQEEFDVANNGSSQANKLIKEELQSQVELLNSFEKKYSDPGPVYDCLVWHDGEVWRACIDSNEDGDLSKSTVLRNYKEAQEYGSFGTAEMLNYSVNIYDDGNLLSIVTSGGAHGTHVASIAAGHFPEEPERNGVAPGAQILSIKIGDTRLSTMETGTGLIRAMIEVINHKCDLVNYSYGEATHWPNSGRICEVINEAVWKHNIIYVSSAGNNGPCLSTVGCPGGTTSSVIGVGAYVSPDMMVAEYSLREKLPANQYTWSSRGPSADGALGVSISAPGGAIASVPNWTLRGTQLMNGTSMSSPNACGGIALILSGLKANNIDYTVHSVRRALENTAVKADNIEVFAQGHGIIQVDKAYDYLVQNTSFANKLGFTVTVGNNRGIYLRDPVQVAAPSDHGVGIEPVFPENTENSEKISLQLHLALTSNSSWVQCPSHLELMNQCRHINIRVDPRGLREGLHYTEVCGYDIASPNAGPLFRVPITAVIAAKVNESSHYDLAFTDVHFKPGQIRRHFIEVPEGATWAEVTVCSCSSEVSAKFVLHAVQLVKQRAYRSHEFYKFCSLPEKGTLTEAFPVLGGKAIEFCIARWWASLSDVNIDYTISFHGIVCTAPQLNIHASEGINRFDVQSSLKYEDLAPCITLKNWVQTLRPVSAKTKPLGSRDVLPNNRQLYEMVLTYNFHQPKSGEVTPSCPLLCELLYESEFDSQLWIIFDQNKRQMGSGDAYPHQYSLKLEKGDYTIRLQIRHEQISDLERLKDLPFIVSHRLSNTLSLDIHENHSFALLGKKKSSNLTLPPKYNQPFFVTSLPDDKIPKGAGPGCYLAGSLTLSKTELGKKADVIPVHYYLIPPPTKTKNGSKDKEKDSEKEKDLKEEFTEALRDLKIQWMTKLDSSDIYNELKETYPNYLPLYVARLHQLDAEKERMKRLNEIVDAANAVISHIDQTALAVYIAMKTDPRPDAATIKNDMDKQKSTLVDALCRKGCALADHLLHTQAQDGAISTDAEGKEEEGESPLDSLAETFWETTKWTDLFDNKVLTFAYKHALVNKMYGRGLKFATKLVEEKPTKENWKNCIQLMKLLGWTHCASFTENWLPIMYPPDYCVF
UniProt P20810: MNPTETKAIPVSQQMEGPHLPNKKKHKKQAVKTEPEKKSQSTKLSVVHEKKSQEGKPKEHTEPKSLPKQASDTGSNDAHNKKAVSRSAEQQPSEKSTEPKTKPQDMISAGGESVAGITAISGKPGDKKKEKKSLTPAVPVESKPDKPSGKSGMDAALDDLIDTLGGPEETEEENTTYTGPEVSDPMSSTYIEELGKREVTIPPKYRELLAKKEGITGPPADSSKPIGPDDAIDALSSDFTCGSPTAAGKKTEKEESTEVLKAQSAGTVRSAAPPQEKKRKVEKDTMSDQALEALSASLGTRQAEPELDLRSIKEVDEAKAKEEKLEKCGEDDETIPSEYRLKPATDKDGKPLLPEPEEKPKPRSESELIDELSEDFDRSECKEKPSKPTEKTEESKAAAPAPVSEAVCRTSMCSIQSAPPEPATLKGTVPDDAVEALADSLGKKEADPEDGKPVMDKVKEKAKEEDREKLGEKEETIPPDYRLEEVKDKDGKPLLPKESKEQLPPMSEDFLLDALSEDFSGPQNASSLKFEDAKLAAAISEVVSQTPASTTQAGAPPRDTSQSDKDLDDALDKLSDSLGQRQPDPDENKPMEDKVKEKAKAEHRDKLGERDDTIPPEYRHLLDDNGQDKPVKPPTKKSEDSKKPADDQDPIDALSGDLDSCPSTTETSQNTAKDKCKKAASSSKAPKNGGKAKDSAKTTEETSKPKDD
UniProt P22102: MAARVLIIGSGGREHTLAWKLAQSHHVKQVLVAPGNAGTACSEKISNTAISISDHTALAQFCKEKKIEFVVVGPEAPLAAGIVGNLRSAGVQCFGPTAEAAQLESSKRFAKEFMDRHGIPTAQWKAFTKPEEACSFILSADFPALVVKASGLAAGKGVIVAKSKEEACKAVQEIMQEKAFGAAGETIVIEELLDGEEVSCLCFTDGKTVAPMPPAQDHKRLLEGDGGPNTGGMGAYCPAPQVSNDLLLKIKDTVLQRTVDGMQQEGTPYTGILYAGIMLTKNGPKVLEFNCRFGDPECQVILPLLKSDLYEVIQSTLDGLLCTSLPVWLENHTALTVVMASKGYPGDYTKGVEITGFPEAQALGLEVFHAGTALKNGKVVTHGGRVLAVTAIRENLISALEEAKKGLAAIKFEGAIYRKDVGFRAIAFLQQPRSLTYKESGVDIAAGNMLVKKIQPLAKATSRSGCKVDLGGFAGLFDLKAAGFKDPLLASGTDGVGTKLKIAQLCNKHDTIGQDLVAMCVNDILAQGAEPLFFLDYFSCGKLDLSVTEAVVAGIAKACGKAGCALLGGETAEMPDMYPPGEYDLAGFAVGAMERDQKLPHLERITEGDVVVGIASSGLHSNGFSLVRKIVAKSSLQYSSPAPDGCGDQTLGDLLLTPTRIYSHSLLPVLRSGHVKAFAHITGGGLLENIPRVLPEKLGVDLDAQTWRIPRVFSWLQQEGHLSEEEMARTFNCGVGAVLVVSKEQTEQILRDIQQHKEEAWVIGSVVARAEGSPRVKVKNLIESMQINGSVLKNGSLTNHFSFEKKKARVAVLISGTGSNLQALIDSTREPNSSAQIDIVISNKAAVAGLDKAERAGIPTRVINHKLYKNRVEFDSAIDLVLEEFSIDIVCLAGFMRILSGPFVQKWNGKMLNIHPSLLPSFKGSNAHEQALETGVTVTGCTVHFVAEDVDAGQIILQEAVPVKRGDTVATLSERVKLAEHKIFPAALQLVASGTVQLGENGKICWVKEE
UniProt P25205: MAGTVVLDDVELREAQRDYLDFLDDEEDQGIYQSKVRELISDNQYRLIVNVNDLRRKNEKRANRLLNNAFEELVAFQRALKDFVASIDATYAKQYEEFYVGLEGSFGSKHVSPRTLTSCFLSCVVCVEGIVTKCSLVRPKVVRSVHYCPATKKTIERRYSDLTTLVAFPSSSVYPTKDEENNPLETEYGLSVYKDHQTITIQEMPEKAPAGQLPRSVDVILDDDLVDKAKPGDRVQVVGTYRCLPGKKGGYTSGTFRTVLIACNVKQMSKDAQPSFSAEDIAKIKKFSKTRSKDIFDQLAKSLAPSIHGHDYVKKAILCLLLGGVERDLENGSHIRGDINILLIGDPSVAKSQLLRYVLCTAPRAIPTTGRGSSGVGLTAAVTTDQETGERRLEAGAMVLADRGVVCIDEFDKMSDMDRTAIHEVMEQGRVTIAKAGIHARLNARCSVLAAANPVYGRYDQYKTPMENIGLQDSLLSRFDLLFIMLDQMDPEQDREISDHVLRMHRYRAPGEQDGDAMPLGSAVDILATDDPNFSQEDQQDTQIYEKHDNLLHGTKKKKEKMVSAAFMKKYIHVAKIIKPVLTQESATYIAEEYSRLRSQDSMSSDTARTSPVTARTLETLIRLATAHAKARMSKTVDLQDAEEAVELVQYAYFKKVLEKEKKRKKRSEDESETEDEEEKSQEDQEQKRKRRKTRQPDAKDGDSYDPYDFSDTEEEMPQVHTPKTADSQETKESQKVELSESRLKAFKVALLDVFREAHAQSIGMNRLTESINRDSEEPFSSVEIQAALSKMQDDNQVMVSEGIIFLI

Compound: COC(=O)/C=C/c1ccccc1 [methyl cinnamate]
Test: log2 ratio of iodoacetamide-alkyne labeling of the cysteine site, DMSO over compound (competition); higher = stronger covalent engagement of the cysteine by the compound, active = 1 or more
Conditions: 500 µM; treatment time 1 h; system: HEK293T cell lysate
In short: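 HEK293T lysate (2 mg/mL) was incubated with electrophile (500 µM) or vehicle for 1 h at ambient temperature and then with iodoacetamide alkyne for 1 h. Labelled proteins were clicked to sCIP-TMT reagents, pooled, digested, enriched on streptavidin and measured by Orbitrap Eclipse LC-MS/MS with FAIMS, with FragPipe quantification. The per-cysteine log2 competition ratio is mean control-channel reporter intensity over mean compound-channel reporter intensity. Across three replicates with duplicate channels, cysteines quantified in only one replicate were excluded.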

log2 ratio of iodoacetamide-alkyne labeling, inactive:
FLNA C53 (UniProt P21333) 0.249, FLNA C1997 (UniProt P21333) 0.0016, UniProt P26639_C630 0.251, APC C352 (UniProt P25054) -0.18, TPP2 C150 (UniProt P29144) 0.325, FDXR C353 (UniProt P22570) 0.24, MPG C61 (UniProt P29372) 0.176, ANXA7 C327 (UniProt P20073) 0.0817, IMPDH1 C215 (UniProt P20839) 0.2, CAST C661 (UniProt P20810) 0.352, SON C2380 (UniProt P18583) 0.0647, PSMA1 C156 (UniProt P25786) -0.23, TUBG1 C316 (UniProt P23258) -0.0762, GART C93 (UniProt P22102) -0.0272, PSMA1 C182 (UniProt P25786) 0.0663, PTBP1 C23 (UniProt P26599) 0.177, LAP3 C313 (UniProt P28838) 0.374, UniProt P27361_C271 -0.0102, MCM3 C119 (UniProt P25205) 0.312, RCC1 C198 (UniProt P18754) 0.0456, MCM3 C148 (UniProt P25205) 0.0595, UniProt P26639_C107 -0.497
